# Measured values: the supplement of paper PMC7824004
# Some of the results follow. The data scatter; read single values as rough.
# Tested on: Candida albicans SN425
# Experiment: biofilm OD600 B-score; higher = more biofilm (less inhibition)
# Conditions: 10 µM; assay detail: High-throughput adherence inhibition optical density biofilm assay with C. albicans SN425 in RPMI-1640/MOPS pH 7.0, 384-well plates. …
# Experimental: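 High-throughput adherence inhibition optical density biofilm assay with C. albicans SN425 in RPMI-1640/MOPS pH 7.0, 384-well plates. Compound (10 µM) was present only during the 90 min adherence step, then washed out, and the biofilm grew 24 h without compound. Biofilm was read as OD600 after removing the media. Scores are the difference from the mean in standard deviations and the plate B-score.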
row,SMILES,biofilm OD600 B-score
1,NC(=O)c1cc([N+](=O)[O-])ccc1N1CCCCC1,1.48
2,CC(C)c1ccc(C(=O)Nc2ccccc2C(N)=O)cc1,1.59
3,COc1cc(NC(=O)c2ccc(C)o2)c(OC)cc1Cl,1.49
4,O=C(CCC1CCCC1)NCC1CCCO1 (stereo not given),3.5
5,COc1ccc(CN2CCN(c3ccccn3)CC2)c(C)c1C,2.06
6,O=S(=O)(c1cc(Cl)ccc1Br)N1CCOCC1,0.712
7,COC(C(=O)Nc1ccccc1C(=O)NC(C)C)c1ccccc1 (stereo not given),0.884
8,CCC(C(=O)Nc1ccc(C(N)=O)cc1)c1ccccc1 (stereo not given),-0.167
9,COc1ccc(C2(CNC(C)=O)CCOCC2)cc1OC,-3.03
10,O=C(Cc1ncc(-c2ccccc2)cn1)c1ccccc1,1.75
11,CCn1cc(CNC(=O)c2ccc(C)s2)cn1,-0.0876
12,CCOc1ccccc1N1CCN(C(=O)CC)CC1,0.611
13,O=C(NCC(O)c1ccccc1)c1ccc(Cl)cc1 (stereo not given),-0.359
14,CC(CCc1ccccc1)NC(=O)c1cccnc1 (stereo not given),-0.324
15,COc1ccc(CCNC(=O)C2CC=CCC2C(=O)O)cc1OC (stereo not given),-4.01
16,CSc1nnc2c(n1)[nH]c1ccc(C)cc12,-1.91
17,COc1cccc(C(=O)Nc2ccccc2C(=O)NC(C)C)c1,0.533
18,O=C(Cc1cccs1)NCc1ccccc1Cl,0.533
19,COCCNC(=O)c1ccc2c(c1)OCO2,0.0726
20,OCCN(Cc1ccccc1)Cc1ccc(Cl)cc1,0.19

# Reprinted at random: 3 entries already listed, in no set order.
row,SMILES,biofilm OD600 B-score
3,COc1cc(NC(=O)c2ccc(C)o2)c(OC)cc1Cl,1.49
4,O=C(CCC1CCCC1)NCC1CCCO1 (stereo not given),3.5
10,O=C(Cc1ncc(-c2ccccc2)cn1)c1ccccc1,1.75

# Continued.

row,SMILES,biofilm OD600 B-score
1,Cc1sc2nc(SCC(=O)N3CCN(CCO)CC3)[nH]c(=O)c2c1C,-1.53
2,CC(NC(=O)C(C)(C)Oc1ccc(Cl)cc1)c1ccncc1 (stereo not given),2.05
3,CS(=O)(=O)Nc1ccccc1C(=O)N1CCCC1,-0.982
4,O=C(Nc1ccc(Cl)cc1F)c1cnccn1,0.0218
5,CC(=O)Nc1ccccc1NC(=O)COc1ccc(C)c(C)c1,-0.993
6,COc1ccc(-c2nnc(-c3ccc(N(C)C)cc3)o2)cc1,3.73
7,COc1cccc(NC(=O)c2ccc(CN3CCOCC3)cc2)c1,0.0281
8,Cc1cc(OCC(=O)Nc2cccnc2)cc(C)c1Cl,-1.58
9,CC(=O)c1cccc(NC(=O)c2ccncc2)c1,1.57
10,O=S(=O)(NC1CC2CCC1C2)c1ccccc1 (stereo not given),2.19
11,O=C(O)CCCNC(=O)c1ccccn1,-0.714
12,O=C(Nc1ccccc1Cl)C1CCN(C(=O)c2cccs2)CC1,0.586
13,O=C(Nc1ccccc1Cl)c1ncn[nH]1,-0.257
14,CCN(CC)CCN(C)C1CCN(C)CC1,-2.18
15,NS(=O)(=O)c1ccc(CNC(=O)COc2ccc(Cl)cc2)cc1,-1.54
16,CCc1cccc(OCCN2CCCC2)c1,-0.0182
17,CN1CCCN(CC2CC3C=CC2C3)CC1 (stereo not given),-0.804
18,CN(C(=O)CSc1nnn(C)n1)c1ccccc1,-0.795
19,O=C(Cc1cccs1)NC1C2CC3CC(C2)CC1C3 (stereo not given),-4.98
20,NC(=O)c1c(-c2cccs2)csc1N,-4.55
